According to patent US9695133B2, “Quinazolinone-based oncogenic-RAS-selective lethal compounds and their use” (THE TRUSTEES OF COLUMBIA UNIVERSITY IN THE CITY OF NEW YORK, priority 2012, dated 2017):
At least one compound was matched to its structure with a doubt left.

Legend:
GPX4 = GPX4 knockdown (siGPX4) in HT-1080 cells
VDAC3 = target: T1, VDAC3 (Homo sapiens, UniProt Q9Y277); experiment: VDAC3 knockdown in HT-1080 cells; format: cell-based
T1 construct: endogenous in cells; host or cells: HT-1080
T1 sequence (Q9Y277 1-283): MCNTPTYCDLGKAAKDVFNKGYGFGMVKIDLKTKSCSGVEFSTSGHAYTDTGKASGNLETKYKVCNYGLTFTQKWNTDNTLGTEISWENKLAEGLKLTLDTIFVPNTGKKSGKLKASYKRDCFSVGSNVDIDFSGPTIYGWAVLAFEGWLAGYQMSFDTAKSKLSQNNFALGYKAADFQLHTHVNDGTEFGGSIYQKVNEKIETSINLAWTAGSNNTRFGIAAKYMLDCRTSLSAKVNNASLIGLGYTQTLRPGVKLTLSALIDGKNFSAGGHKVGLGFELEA

ALOX15B and ALOXE3 = experiment: ALOX15B / ALOXE3 siRNA knockdown and lethal compound sensitivity in HT-1080 cells; format: cell-based, human
Procedure: HT-1080 cells were transfected with siRNA pools targeting either ALOX15B or ALOXE3, and then, treated with the indicated RSL compounds in 2-fold dilution series. 24 hours after compound treatment, alamar blue was added to the culture at a final concentration of 10% in growth media to determine cell viability. The percent growth inhibition was calculated from the fluorescence intensity of each well in 384-well assay plates. Data points represent mean of duplicates.
Small interfering RNA (siRNA) pools targeting ALOX15B and ALOXE3 were obtained from Dharmacon Technologies (Lafayette, Colo.). On the day of reverse-transfection, a cocktail of 1 mL of Opti-MEM (Invitrogen Corp., Carlsbad, Calif.), 6 μL of Lipofectamine RNAiMAX (Invitrogen), and 5 μL of 10 μM siRNA were prepared and transferred to each well of a 6-well plate. The 6-well plate was put in the tissue culture incubator for 20 minutes to allow the formation of transfection mixture. While the complex was forming, HT-1080 cells were trypsinized and the cell number was determined using ViCell (Trypan Blue). 200,000 cells were prepared in 1 mL of growth media with 2× serum, and then, the cell suspension was transferred to each well containing 1 mL of the transfection mix. The 6-well plate was returned to the incubator and the culture grown for 2 days. […]

| Structure (SMILES) | rescue of siGPX4-induced cell death (GPX4) | effect of VDAC3 knockdown on compound-induced cell death (VDAC3) | effect of ALOX15B knockdown on compound-induced cell death (ALOX15B and ALOXE3) | effect of ALOXE3 knockdown on compound-induced cell death (ALOX15B and ALOXE3) |
| --- | --- | --- | --- | --- |
| CC(=O)N(O)CCCCCNC(=O)CCC(=O)N(O)CCCCCNC(=O)CCC(=O)N(O)CCCCCN [DFOM, Deferoxamine] | rescued | – | – | – |
| CCOc1ccccc1-n1c(C(C)N2CCN(C(=O)COc3ccc(Cl)cc3)CC2)nc2ccccc2c1=O (stereo not shown) [erastin] | – | rescued HT-1080 cells from cell death | prevented erastin-induced cell death | suppressed |
